“And” between values parts separate entries of the source, which are not always exact repeats. Equal values may be shown once. Some of the results follow. For some assays here: The exact form of the protein is not confirmed.
Tests used:
Test in all cases: protein microarray (ProtoArray v5.0), streptavidin-Alexa Fluor 647
Details in all cases: 3'-biotin; 20 mM Tris (pH 7.5), 5 mM MgCl2, 100 mM KCl, 0.1% Tween-20, A/T-rich and random oligonucleotide blockers; temperature not stated; high values mean tight binding
[1] = system: SCGB1A1 (human)
[2] = system: SCGB1C1 (human)
[3] = system: SCGB1D1 (human)
[4] = system: SCGB2A1 (human)
[5] = system: SCGB3A1 (human)
[6] = system: SCGB3A2 (human)
[7] = system: SCIN (human)
[8] = biological target: SCN5A (UniProt Q14524)
[9] = system: SCO2 (human)
[10] = system: SCP2 (human)
[11] = system: SCRN2 (human)
[12] = system: SDC1 (human)
[13] = system: SDC4 (human)
[14] = system: SDF2 (human)
[15] = system: SDSL (human)
[16] = system: SEC13L1 (human)
[17] = system: SEC31B (human)
[18] = system: SELI (human)
[19] = system: SELPLG (human)
[20] = system: SENP8 (human)

## GGGAGGCTGAGGCAGG [G4-1 biotinylated (PQS2)]
[1]
  binding signal: -0.359 z-score
[2]
  binding signal: -0.361 z-score
[3]
  binding signal: -0.31 z-score
[4]
  binding signal: -0.312 z-score
[5]
  binding signal: -0.342 z-score
[6]
  binding signal: -0.297 z-score
[7]
  binding signal: -0.312 z-score
[8]
  binding signal: -0.267 z-score
[9]
  binding signal: -0.303 z-score
[10]
  binding signal: -0.351 z-score
[11]
  binding signal: -0.318 z-score
[12]
  binding signal: -0.34 z-score
[13]
  binding signal: -0.329 z-score
[14]
  binding signal: -0.302 z-score
[15]
  binding signal: -0.349 z-score
[16]
  binding signal: -0.357 z-score and -0.26 z-score
[17]
  binding signal: -0.31 z-score
[18]
  binding signal: -0.275 z-score
[19]
  binding signal: -0.352 z-score
[20]
  binding signal: -0.349 z-score

— article PMC5996148
